{"source": "paper doi:10.1101/2021.06.22.449524", "binders": {"B1": {"name": "zinc finger protein 541 (ZFP541) (protein, UniProt Q0GGX2 1-1363)", "chain": "MEPYSLGEEGALPSEGHLPSFSESQVLNCSDTLNRDLGPSTRDLLYAGLSGLDLDPSLSTSDMPSEVLEDNLDTLSLYSGKDSDSVKLLEEYADSESQTSLQDLGLGALKVPKEADEGGRATGSTRKGKRQHSSPQNPLLDCSLCGKVFSSASSLSKHYLTHSQERKHVCKVCSKAFKRQDHLTGHMLTHQKTKPFVCIEQGCSKSYCDYRSLRRHYEVQHGVCILKETPPEEEAYGDPTHNHDVANQPPPSGLRSLGPPEARSPGSVLPNRDLLRCIVSSIVHQKIPSPGPAVGPSDTEARSSACACPTSLGSSSCTPASTPVALGTLGSEIPEETHPPRKEAATEVFTPVQSRAAENGVPDPPESELESESPRLQRPSSLEGWPEGSSLPACLPLFRGHSVPSGSQPSSHNFQWLRNLPGCPKNKGSNVFMVHKPPAVASREGSEGGGSGPSSTPTSVEPSPSLGTTQEELLPFPPALLKAPGEASSEVRQAAGEDETWAPKKCKPDCESFPWQSPTELGLQDAQNPGGLPSDATPLFRQLFMKSQESLVSHEQMQVLQMIAKSQRIFSHTQVATASAQRPGPEGKQSTLKPLQGPWPPQTLPPAPTVDSFQIGPGHSEPEGSPVRRRKTMPAVSRETSPGGPRRDTKGGPKVASAPPSLTGPGLLPSRNPDSSSLAKGTLDLGDIIPNAGSRQSQLGGDEPAGTQLVGKQGQGENGLASGAMRGEKGPACPRGGGYRLFSGHPRAQRFSGFRKEKVKMDVCCAASPSQVAMASFSSAGPLADPPRDMKSKLTIFNRIQGGNIYRLPHPVKEESLAGGCHQPNGGPTDWMESKSTFVCKNCSQMFYTEKGLSSHMCFHSDQWPSPRGKQEQQVKGQMVASVKRKAGREEGAVEDMKRHYDCSSSEPQDVTILSMLVSSGSCGVTPVVLSSLLQGQEKDGEERDSKESCQYRKRKKRPQPKALFAPPAPSALGEPGPGGCHQSCLHSPVFLVDHLLKGLFQCSPYTPPPMLSPIREGSGLYFNTLCSTSRAGPHLISPVLDQVDSSFGICVVKDDTKISIEPHINVGSRFQAEIPELQERLLARVDENVASLVWKPWGDVMTNPETQDRVMELCNVACSSVMPGGGTNLELALHCLHDAQGSVQVALETLLLRGPQKPRTHPLADYRYTGSDIWTPMEKRLFKKAFCAHKKDFYLIHKMIQTKSVAQCVEYYYIWKKMVKFDCGRAPGLEKRGRRELDEVERTEDKVTCSPRERPTHRPTPELKIKTKSYRRESILHSSPSAAPKRTPEPPGSVESQGVFPCRECERVFDKIKSRNAHMKRHRLQEHVEPVRVKWPVKPYPLKEEEEEEEEELGADMGPLQW"}}, "target": "T1, potassium channel tetramerization domain containing 19 (KCTD19) (mouse (endogenous in testis)) (UniProt Q562E2)", "T1 sequence": "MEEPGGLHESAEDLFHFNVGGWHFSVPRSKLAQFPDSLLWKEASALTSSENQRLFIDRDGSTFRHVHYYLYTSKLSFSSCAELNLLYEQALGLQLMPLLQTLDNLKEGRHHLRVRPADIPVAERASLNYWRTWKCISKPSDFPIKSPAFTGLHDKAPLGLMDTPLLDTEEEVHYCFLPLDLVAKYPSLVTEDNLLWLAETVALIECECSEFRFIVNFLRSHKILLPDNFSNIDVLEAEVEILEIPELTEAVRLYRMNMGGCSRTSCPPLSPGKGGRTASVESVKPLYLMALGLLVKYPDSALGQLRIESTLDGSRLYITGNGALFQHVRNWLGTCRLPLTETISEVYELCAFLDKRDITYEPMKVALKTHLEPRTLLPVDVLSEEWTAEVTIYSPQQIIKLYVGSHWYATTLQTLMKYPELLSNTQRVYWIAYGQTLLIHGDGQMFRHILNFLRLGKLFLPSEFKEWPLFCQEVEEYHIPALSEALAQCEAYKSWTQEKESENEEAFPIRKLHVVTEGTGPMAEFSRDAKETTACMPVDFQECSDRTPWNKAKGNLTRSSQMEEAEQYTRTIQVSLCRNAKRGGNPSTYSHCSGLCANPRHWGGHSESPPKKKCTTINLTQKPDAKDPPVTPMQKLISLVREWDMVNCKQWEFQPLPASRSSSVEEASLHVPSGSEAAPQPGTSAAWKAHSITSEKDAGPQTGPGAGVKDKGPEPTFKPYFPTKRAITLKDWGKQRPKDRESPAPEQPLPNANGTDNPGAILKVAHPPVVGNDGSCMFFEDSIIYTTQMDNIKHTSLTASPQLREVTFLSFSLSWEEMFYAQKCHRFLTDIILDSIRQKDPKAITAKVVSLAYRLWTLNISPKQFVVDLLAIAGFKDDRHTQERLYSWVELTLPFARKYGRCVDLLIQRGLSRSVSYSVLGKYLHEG", "experiment": "co-IP", "note": "These are yes or no findings as the source states them, for the method shown. Binding seen in cells or lysates may run through a third protein. Some binding calls cover weakened binding; strength is not graded here.", "data": [{"binder": "B1", "values": [{"measurement": "binding", "value": "binds"}]}]}
